Experimental data as given in patent EP4541796A1 (Hangzhou Adcoris Biopharma Co., Ltd, priority 2022, dated 2024).
Where no end group is shown, it is not given here. The star is where a group is joined. Fmoc = O=C(OCC1c2ccccc2-c2ccccc21)*; OtBu = CC(C)(C)O*

Test: general procedure: solution-phase peptide synthesis; HATU, DIPEA

| Substance | step yield (late stage modification step) | other results |
| --- | --- | --- |
| Fmoc-GGFGG | 90% |  |
| Fmoc-Gly-Gly-Phe-Gly-methoxy-N-methylaminoacetyl exatecan |  | conjugation yield (conjugation step): 50% |
| Fmoc-GGFGG-OtBu |  | step yield (coupling step): 79% |
| Gly-Gly-Phe-Gly-methoxy-N-methylaminoacetyl exatecan | 100% |  |
| Fmoc-Gly-Gly-Phe-Gly-N-hydroxymethylacetate | 59% |  |
| mc-Gly-Gly-Phe-Gly-methoxy-N-methylaminoacetyl exatecan | 30% yield |  |
